Two substances from article doi:10.1101/2020.06.08.140590 can be followed below.

Chains of the proteins cited; added tags and fusions are not shown.
UniProt Q9UKV8: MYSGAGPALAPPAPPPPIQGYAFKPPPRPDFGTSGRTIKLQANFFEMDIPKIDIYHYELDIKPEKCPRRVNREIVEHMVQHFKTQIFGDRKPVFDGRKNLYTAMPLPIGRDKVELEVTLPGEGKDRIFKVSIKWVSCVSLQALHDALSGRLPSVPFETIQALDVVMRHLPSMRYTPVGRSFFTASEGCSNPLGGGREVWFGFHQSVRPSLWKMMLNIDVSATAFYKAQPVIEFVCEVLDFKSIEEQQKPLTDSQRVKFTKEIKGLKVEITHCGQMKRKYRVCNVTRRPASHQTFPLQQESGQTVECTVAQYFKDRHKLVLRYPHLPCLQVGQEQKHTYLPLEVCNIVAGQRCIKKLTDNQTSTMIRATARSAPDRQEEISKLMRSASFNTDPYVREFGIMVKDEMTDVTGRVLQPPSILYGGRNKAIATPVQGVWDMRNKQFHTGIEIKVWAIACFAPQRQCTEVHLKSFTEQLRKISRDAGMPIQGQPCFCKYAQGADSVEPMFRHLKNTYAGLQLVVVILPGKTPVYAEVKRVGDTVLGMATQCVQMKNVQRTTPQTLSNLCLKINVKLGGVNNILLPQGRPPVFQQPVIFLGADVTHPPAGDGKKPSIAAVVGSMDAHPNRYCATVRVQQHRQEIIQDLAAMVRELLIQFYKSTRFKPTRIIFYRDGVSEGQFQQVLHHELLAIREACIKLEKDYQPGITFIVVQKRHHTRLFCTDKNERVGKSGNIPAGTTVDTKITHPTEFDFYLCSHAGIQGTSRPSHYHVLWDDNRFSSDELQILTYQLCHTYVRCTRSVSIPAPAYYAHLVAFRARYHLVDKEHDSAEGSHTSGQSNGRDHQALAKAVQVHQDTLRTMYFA

These are yes or no findings as the source states them, for the method shown. Binding seen in cells or lysates may run through a third protein. A yes stands for co-enrichment or nearness to the bait. Other partners may have been found.

Test [1] addresses HA-Ago1 (FLAG/HA-tagged Argonaute 1) (human) (UniProt Q9UL18). Briefly: affinity purification with mass spectrometry.
For test [2], the target named is HA-Ago2 (FLAG/HA-tagged Argonaute 2) (human) (UniProt Q9UKV8). Briefly: affinity purification with mass spectrometry.

As for “HSC70, endogenous (from UniProt P11142 1-646)”, the binding entry in test [1] and in test [2] was “binds” throughout.

Take “HSPA1A (heat shock 70KDa protein 1A), endogenous (from UniProt P0DMV8 1-641)”: the binding entry in test [1] and in test [2] was “binds” in each case.
